Laboratory results published in PubChem BioAssay (EPA / NIEHS).
Inconclusive means that the source gave no clear call. Such entries were picked first, then a sample of the others. For some assays here: Where the call is inconclusive, the potency comes from a doubtful curve fit. Active and inactive are the calls of the source. Rule for the calls: active = hit-call score of the fitted dose curve at least 0.9, where 1 is the maximum; inconclusive = response in the unintended direction; inactive = score below 0.9.

By UniProt entry, the sequences of proteins in these tests, tags left out. Where a name states a change or a piece, a line headed by the entry shows the natural chain unless it says otherwise.
UniProt Q60492, whole entry, looked up: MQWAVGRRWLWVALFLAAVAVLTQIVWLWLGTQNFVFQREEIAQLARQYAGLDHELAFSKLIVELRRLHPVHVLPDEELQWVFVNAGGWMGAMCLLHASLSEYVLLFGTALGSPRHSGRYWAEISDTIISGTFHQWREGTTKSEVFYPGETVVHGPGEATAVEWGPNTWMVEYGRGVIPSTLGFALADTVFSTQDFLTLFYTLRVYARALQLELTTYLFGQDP
UniProt P37231: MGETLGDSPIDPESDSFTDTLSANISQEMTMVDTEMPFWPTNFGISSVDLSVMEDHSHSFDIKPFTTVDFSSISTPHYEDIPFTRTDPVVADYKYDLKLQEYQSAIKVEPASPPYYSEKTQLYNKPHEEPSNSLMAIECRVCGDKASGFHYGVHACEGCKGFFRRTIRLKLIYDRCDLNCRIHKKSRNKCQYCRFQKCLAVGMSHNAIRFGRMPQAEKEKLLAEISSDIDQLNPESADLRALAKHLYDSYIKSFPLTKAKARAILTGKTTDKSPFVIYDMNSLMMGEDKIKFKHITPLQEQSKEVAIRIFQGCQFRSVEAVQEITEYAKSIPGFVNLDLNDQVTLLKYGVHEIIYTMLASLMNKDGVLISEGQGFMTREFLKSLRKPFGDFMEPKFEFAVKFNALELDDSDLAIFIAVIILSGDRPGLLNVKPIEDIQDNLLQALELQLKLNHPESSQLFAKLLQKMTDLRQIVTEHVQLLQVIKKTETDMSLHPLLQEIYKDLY
UniProt O70526, whole entry, looked up: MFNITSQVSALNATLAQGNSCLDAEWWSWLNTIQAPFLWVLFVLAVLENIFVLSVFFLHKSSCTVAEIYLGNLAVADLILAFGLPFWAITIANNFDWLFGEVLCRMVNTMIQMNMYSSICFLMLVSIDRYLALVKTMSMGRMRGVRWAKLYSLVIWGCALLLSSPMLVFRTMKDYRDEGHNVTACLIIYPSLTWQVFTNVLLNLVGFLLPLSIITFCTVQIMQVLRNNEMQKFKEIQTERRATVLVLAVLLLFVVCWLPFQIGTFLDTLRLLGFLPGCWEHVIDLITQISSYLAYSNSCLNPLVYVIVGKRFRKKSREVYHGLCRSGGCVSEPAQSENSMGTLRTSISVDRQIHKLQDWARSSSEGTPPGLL
UniProt P70536: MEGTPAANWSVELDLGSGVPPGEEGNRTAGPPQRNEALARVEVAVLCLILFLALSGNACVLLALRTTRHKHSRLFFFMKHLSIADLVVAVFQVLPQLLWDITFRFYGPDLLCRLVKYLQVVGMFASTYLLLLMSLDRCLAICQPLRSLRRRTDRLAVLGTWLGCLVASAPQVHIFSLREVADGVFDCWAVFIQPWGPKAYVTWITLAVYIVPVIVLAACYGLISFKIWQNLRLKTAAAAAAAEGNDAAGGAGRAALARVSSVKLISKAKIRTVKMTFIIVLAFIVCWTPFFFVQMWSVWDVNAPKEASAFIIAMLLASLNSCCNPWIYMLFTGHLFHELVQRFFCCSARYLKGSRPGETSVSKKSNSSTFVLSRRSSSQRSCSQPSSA
UniProt P15207: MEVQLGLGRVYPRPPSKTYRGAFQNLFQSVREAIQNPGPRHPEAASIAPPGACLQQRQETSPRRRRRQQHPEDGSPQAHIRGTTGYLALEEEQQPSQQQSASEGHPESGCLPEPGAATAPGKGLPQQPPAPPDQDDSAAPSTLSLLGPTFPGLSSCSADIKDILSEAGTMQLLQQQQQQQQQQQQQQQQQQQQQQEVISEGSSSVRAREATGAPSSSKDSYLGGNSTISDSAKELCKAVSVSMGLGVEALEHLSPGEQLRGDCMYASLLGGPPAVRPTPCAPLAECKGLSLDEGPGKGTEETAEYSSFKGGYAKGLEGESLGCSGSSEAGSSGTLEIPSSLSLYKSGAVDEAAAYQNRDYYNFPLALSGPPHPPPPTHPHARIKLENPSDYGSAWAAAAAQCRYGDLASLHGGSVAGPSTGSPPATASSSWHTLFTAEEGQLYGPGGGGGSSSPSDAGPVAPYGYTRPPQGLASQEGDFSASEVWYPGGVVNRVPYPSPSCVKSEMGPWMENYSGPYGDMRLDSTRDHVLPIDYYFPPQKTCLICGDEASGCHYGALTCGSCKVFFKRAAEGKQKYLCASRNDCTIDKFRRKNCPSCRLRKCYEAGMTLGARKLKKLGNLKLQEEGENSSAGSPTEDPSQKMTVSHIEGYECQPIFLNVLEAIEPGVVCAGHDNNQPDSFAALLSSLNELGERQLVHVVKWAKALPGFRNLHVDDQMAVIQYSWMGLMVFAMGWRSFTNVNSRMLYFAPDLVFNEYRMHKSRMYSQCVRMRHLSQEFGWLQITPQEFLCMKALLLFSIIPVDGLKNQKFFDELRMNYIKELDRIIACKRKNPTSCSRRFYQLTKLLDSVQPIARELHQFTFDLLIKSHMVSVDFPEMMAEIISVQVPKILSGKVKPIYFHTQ
UniProt P56481: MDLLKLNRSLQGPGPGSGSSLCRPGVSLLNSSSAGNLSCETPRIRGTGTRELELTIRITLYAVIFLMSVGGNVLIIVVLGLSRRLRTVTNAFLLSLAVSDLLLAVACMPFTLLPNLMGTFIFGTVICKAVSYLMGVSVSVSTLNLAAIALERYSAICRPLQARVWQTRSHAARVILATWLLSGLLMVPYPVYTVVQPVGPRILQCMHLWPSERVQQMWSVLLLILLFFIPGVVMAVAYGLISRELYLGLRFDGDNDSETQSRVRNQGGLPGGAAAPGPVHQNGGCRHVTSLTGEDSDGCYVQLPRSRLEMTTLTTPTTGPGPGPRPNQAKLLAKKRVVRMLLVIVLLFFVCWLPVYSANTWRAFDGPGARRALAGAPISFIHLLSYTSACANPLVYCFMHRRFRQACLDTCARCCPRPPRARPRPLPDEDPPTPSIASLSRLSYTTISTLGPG
UniProt P10828: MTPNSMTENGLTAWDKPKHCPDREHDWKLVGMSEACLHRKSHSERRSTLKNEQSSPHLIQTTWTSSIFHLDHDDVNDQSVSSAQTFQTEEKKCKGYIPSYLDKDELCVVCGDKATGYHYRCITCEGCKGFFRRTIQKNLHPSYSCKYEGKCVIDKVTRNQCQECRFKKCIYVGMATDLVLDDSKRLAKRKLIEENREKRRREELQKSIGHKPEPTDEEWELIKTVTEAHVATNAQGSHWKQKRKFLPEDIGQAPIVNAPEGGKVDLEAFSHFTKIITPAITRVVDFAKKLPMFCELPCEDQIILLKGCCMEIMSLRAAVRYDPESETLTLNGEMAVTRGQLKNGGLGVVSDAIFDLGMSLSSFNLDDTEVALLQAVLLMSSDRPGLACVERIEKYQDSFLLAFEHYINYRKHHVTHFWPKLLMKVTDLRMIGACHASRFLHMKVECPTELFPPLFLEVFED
UniProt P20309, whole entry, looked up: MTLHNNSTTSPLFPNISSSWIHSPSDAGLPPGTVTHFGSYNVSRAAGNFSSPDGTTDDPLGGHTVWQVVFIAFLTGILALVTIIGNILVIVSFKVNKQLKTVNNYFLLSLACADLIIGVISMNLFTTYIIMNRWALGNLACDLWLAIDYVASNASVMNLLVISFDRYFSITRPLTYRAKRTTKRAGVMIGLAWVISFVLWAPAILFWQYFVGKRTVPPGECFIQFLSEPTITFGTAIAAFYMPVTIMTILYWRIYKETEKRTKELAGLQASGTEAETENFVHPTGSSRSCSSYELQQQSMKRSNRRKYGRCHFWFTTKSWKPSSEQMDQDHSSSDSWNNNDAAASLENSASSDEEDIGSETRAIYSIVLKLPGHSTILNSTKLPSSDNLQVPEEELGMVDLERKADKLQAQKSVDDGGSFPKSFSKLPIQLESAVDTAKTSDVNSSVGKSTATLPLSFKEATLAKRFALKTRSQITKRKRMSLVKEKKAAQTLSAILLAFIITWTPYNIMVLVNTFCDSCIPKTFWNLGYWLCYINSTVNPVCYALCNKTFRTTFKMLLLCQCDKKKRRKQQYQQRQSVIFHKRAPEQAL
UniProt P07333, whole entry, looked up: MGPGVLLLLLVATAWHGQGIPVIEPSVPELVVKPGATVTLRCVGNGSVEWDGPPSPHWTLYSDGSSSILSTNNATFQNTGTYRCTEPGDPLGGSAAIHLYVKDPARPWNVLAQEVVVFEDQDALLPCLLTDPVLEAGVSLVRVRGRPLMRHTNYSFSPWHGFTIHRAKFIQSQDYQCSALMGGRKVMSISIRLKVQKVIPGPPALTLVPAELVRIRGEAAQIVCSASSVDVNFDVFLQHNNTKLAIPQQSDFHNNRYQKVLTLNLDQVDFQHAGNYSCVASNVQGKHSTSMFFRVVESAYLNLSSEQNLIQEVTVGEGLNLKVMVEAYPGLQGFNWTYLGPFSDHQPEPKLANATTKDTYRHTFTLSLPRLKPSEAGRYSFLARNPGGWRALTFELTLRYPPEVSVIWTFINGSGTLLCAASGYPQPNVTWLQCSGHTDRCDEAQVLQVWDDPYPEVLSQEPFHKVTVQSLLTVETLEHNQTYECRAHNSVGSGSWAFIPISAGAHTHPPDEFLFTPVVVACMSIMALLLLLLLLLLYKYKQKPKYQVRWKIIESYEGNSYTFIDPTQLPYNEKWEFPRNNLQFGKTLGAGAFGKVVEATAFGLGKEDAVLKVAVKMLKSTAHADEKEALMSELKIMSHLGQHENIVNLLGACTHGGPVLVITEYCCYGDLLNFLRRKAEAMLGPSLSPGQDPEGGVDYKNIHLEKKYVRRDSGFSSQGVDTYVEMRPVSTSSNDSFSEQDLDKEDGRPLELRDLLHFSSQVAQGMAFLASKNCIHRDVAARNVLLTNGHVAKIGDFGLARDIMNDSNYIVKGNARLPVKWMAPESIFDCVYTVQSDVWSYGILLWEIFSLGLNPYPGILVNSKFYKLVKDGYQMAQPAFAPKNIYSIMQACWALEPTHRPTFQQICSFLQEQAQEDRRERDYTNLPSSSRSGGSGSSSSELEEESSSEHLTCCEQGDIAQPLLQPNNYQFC
UniProt P27361, whole entry, looked up: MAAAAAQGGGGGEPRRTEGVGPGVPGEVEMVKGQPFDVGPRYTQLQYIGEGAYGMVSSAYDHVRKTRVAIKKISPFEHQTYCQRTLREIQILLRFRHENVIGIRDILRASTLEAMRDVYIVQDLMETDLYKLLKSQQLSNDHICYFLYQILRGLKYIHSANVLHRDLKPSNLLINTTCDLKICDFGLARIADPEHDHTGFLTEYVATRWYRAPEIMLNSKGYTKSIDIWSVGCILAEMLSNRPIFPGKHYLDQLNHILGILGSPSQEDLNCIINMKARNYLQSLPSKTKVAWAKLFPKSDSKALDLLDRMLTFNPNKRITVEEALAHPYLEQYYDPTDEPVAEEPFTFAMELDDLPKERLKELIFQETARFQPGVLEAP
UniProt Q13464: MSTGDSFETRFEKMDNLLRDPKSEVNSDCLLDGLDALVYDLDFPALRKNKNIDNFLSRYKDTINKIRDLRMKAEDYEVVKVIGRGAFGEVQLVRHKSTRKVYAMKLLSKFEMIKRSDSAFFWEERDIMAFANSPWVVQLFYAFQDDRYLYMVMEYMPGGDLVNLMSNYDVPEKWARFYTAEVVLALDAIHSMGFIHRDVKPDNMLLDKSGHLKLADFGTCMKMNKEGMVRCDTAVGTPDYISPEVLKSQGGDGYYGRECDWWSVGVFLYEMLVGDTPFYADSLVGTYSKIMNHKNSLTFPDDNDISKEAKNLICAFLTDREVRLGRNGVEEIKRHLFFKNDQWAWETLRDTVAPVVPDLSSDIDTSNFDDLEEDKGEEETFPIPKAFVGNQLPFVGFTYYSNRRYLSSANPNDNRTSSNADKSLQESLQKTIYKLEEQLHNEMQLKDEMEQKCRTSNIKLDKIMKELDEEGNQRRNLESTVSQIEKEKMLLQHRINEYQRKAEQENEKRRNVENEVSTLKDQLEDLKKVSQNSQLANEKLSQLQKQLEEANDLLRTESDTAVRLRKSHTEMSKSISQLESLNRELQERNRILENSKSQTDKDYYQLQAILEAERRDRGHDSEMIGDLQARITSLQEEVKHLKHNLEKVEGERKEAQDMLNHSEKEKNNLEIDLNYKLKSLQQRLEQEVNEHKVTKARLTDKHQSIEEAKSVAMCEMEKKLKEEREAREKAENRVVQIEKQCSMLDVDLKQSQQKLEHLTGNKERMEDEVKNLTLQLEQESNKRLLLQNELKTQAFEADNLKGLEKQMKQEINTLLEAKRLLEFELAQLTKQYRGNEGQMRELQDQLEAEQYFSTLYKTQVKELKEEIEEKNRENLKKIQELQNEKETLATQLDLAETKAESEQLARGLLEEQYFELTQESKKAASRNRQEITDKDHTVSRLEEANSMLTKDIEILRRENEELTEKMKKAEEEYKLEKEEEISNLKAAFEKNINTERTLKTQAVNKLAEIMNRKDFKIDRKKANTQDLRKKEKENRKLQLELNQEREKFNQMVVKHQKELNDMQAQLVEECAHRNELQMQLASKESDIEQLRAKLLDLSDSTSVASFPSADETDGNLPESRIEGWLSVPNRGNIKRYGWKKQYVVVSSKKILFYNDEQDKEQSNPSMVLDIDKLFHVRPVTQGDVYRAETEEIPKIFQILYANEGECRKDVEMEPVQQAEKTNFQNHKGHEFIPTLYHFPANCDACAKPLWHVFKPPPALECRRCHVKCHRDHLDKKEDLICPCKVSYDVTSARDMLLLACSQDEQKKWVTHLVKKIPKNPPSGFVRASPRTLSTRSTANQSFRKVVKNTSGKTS

Legend:
[1] = target: Tyrosine-protein phosphatase non-receptor type 14 (Homo sapiens) (UniProt Q15678); assay: NVS_ENZ_hPTPN14: NovaScreen (NVS) Enzymatic Assay for human Protein Tyrosine Phosphatase Non-receptor Type 14 (PTPN14) (AID 2283206)
Outline: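 Cell-free recombinant human PTPN14 with fluorescent substrate, read 0.5 h after dosing by fluorescence and electrophoretic mobility shift separating substrate from product. Primary screen at 25 uM in duplicate; hits run to 50 uM maximum; loss of signal versus DMSO.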

[2] = target: guinea pig Sigma Receptor, Non-selective Binding, SIGMAR1 (gene 100135589) (UniProt Q60492); assay: NVS_OR_gSIGMA_NonSelective: NovaScreen (NVS) Nuclear Receptor Binding Assay for guinea pig Sigma Receptor, Non-selective Binding (AID 2283367)
Outline: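 gp brain membr., radioligand displacement, 1 h, filtration + scint. counting; DMSO = baseline; 25 uM x2 primary, conc.-response confirm.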

[3] = target: Peroxisome proliferator-activated receptor gamma (Homo sapiens) (UniProt P37231); assay: ATG_hPPARg_XSP1: Attagene TRANS-FACTORIAL Multi-Species (XSP1) HepG2 Assay for human Peroxisome Proliferator-activated Receptor gamma (PPARg) (AID 2283800)
Outline: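 HepG2 cells transiently transfected with GAL4-UAS reporter units carrying chimeric NR-Gal4 proteins; 3 nM 6-alpha-fluorotestosterone present. After 24 h dosing, reporter mRNA quantified by RT-PCR and capillary electrophoresis; gain of signal relative to DMSO.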

[4] = tested on: frog Estrogen Receptor (ER), gene 398734; assay: ATG_frER1_XSP2: Attagene TRANS-FACTORIAL Multi-Species (XSP2) HepG2 Assay for frog Estrogen Receptor (ER) (AID 2283821);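 note: hits raise reporter mRNA above DMSO baseline so potency means agonist or activator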
Outline: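 Steps: transfect HepG2 with multiple reporter transcription units; treat with chemical for 24 h; isolate RNA, reverse-transcribe, PCR-amplify, label with 6-FAM, digest with HpaI; resolve fragments by capillary electrophoresis. Signal is scored against DMSO.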

[5] = target: guinea pig Bradykinin Receptor B2 (BK2), BDKRB2 (gene 100135486) (UniProt O70526); assay: NVS_GPCR_gBK2: NovaScreen (NVS) G Protein-Coupled Receptor Assay for guinea pig Bradykinin Receptor B2 (BK2) (AID 2283292)
Outline: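 Radioligand displacement on guinea pig ileum membranes for 1 h, read by filter-based scintillation counting; loss of signal relative to DMSO. Compounds were screened in duplicate at 25 uM, and those passing the threshold were retested in concentration-response up to 50 uM.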

[6] = target: rat Oxytocin Receptor (OXT), Oxtr (gene 25342) (UniProt P70536); assay: NVS_GPCR_rOXT: NovaScreen (NVS) G Protein-Coupled Receptor Assay for rat Oxytocin Receptor (OXT) (AID 2283330)
Outline: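 Radioligand displacement on rat uterine membranes, 1 h incubation, filter-based scintillation counting. Chemicals were screened in duplicate at 25 uM, and those passing threshold were retested in concentration-response up to 50 uM. Loss of binding was fitted versus DMSO.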

[7] = tested on: bovine Histamine 1 Receptor (H1), gene 281231; assay: NVS_GPCR_bH1: NovaScreen (NVS) G Protein-Coupled Receptor Assay for bovine Histamine 1 Receptor (H1) (AID 2283246)
Outline: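 Radioligand displacement on bovine cerebellar membranes, 1 h after dosing, filter-based scintillation read-out; loss of signal vs DMSO. Duplicate single-concentration screen at 25 uM, then concentration-response up to 50 uM for hits.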

[8] = target: rat Androgen Receptor (AR), Ar (gene 24208) (UniProt P15207); assay: NVS_NR_rAR: NovaScreen (NVS) Nuclear Receptor Binding Assay for rat Androgen Receptor (AR) (AID 2283366)
Outline: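 Cell-free radioligand binding on extracts of prostate from testosterone-pretreated rats, read by filter-based scintillation counting 18 h after dosing. Loss of bound signal fitted positively versus DMSO; primary screen in duplicate at 25 uM, actives followed up in concentration series.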

[9] = CCTE_Mundy_HCI_iCellGluta_NOG_NeuriteCount: CCTE's Neurite Outgrowth Assay in iCellGluta cells for Neurite Count, Mundy Lab (AID 2284342);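 note: chemical exposure about 48 hours starting 2 hours after plating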
[10] = target: mouse Cholecystokinin, CCK2 Receptor (CCKB), Cckbr (gene 12426) (UniProt P56481); assay: NVS_GPCR_mCKKBCentral: NovaScreen (NVS) G Protein-Coupled Receptor Assay for mouse Cholecystokinin, CCK2 Receptor (CCKB) (AID 2283293)
Outline: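 Radioligand displacement binding on mouse forebrain membranes, 2 h exposure, filter-based scintillation counting. Primary screen in duplicate at 25 uM; actives (e.g. ≥30% inhibition) retested in concentration-response up to 50 uM; loss of binding signal relative to DMSO.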

[11] = tested on: bovine Angiotensin II Receptor Type 2 (AT2), gene 407157; assay: NVS_GPCR_bAT2: NovaScreen (NVS) G Protein-Coupled Receptor Assay for bovine Angiotensin II Receptor Type 2 (AT2) (AID 2283240)
Outline: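 Radioligand displacement on bovine cerebellar membranes, 1 hour incubation, filter-based scintillation counting; loss of signal vs DMSO. Duplicate single-point screen at 25 uM, then concentration-response to 50 uM maximum.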

[12] = target: THRA (gene 7067) (UniProt P10827); assay: TOX21_TRA_COA_Antagonist_Followup_ratio: Tox21 Thyroid Hormone Receptor alpha Antagonism through Coactivator Recruitment Follow-Up Assay, Ratio (AID 2283953)
Outline: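 520:495 nm emission ratio (excitation 340 nm) reports fluorescein-SRC-2 peptide recruitment to GST-TRα LBD by TR-FRET with Tb anti-GST antibody. Values were normalized to DMSO (0%) and T3 control wells (100%); loss of signal indicated antagonism.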

[13] = target: THRB (gene 7068) (UniProt P10828); assay: TOX21_TRB_BLA_Antagonist_Followup_ratio: Tox21 Thyroid Hormone Receptor beta Antagonism Beta-lactamase (BLA) Follow-Up Assay, Ratio (AID 2283958)
Outline: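 HEK293T cells with a GAL4-TRb LBD fusion and UAS-bla reporter, 3,000 cells/well in phenol red-free DMEM with 2% charcoal-stripped FBS. Exposed 18 h at 37C to 11 concentrations in triplicate; CCF4 460:530 nm ratio after 2 h, DMSO-referenced.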

[14] = target: Muscarinic acetylcholine receptor M3 (Homo sapiens) (UniProt P20309); assay: NVS_GPCR_hM3: NovaScreen (NVS) G Protein-Coupled Receptor Assay for human Muscarinic, M3 Receptor (AID 2283272)
Outline: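 Radioligand displacement binding on human M3 receptor in CHO-derived membranes, 1 h incubation, filter-based scintillation counting. Primary screen in duplicate at 25 uM; actives followed up in concentration series; loss of signal versus DMSO.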

[15] = tested on: rabbit Platelet Activating Factor Receptor (PAF), gene 100354046; assay: NVS_GPCR_rabPAF: NovaScreen (NVS) G Protein-Coupled Receptor Assay for rabbit Platelet Activating Factor Receptor (PAF) (AID 2283287)
Outline: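 Rabbit platelet membrane preparation; radioligand displacement read by filter-based scintillation counting 1 h after dosing, loss of signal versus DMSO. Primary screen in duplicate at 25 uM, actives followed up in concentration series.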

[16] = target: human Colony Stimulating Factor 1 Receptor (CSF1R), CSF1R (gene 1436) (UniProt P07333); assay: NVS_ENZ_hCSF1R: NovaScreen (NVS) Enzymatic Assay for human Colony Stimulating Factor 1 Receptor (CSF1R) (AID 2283150)
Outline: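 Cell-free recombinant human CSF1R kinase with fluorescent substrate, product separated by electrophoretic mobility shift; read 1 h after dosing. Primary screen at 25 uM in duplicate, actives then in concentration-response up to 50 uM, relative to DMSO.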

[17] = target: Mitogen-activated protein kinase 3 (Homo sapiens) (UniProt P27361); assay: NVS_ENZ_hMAPK3: NovaScreen (NVS) Enzymatic Assay for human Mitogen-Activated Protein Kinase 3 (MAPK 3) (AID 2283177)
Outline: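 Cell-free enzymatic assay with recombinant protein and specific substrate; fluorescence and electrophoretic mobility shift read-out 1 h after dosing. Primary screen duplicate at 25 uM; actives then run in concentration-response up to 50 uM, loss of signal versus DMSO.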

[18] = tested on: zebrafish Estrogen Receptor (ER2a), gene 317734; assay: ATG_zfER2a_XSP2: Attagene TRANS-FACTORIAL Multi-Species (XSP2) HepG2 Assay for zebrafish Estrogen Receptor (ER2a) (AID 2283818);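 note: hits raise reporter mRNA so AC50 reflects activation of zebrafish ER2a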
Outline: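 HepG2 cells transiently transfected with GAL4-UAS reporter units and chimeric zebrafish ER2a-Gal4, exposed 24 h; medium contains 3 nM 6-alpha-fluorotestosterone and 1.5 nM norgestrel. Reporter mRNA quantified by RT-PCR, HpaI digestion, capillary electrophoresis; gain versus DMSO.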

[19] = target: human Rho Associated Coiled-coil Containing Protein Kinase 1 (ROCK1), ROCK1 (gene 6093) (UniProt Q13464); assay: NVS_ENZ_hROCK1: NovaScreen (NVS) Enzymatic Assay for human Rho Associated Coiled-coil Containing Protein Kinase 1 (ROCK1) (AID 2283214)
Outline: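 Cell-free recombinant human ROCK1 activity assay; fluorescent substrate and product separated by electrophoretic mobility shift, read 1 h after dosing. Screened in duplicate at 25 uM; loss of signal versus DMSO baseline scored as inhibition.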

[20] = target: Voltage-dependent N-type calcium channel subunit alpha-1B (Rattus norvegicus) (UniProt Q02294); assay: NVS_IC_rCaChN: NovaScreen (NVS) Ion Channel Assay for rat Calcium Channel, Type N (CaChN) (AID 2283317)

OC(c1ccc(Cl)cc1)(c1cncnc1)c1ccccc1Cl (stereo not given)
AC50 [1]: inconclusive: 6.02 µM | outcome [2]: inactive | outcome [3]: inactive | outcome [4]: inactive

COC(=O)c1ccccc1S(=O)(=O)NC(=O)N(C)c1nc(C)nc(OC)n1
outcome [5]: inactive | AC50 [6]: inconclusive: 46.3 µM

CCNc1nc(Cl)nc(NC(C)C)n1
outcome [7]: inactive

OC(Cc1ccccc1Cl)(Cn1[nH]cnc1=S)C1(Cl)CC1 (stereo not given)
outcome [8]: inactive | outcome [9]: inactive

COP(=O)(OC)O/C(C)=C/C(=O)N(C)C
AC50 [10]: inconclusive: 25 µM

CON=C(C(=O)OC)c1ccccc1CON=C(C)c1cccc(C(F)(F)F)c1
outcome [11]: inactive | AC50 [12]: inconclusive: 15.2 µM | outcome [13]: inactive

CCC(C)n1c(=O)[nH]c(C)c(Br)c1=O (stereo not given)
outcome [14]: inactive

COC(=O)NS(=O)(=O)c1ccc(N)cc1
AC50 [15]: inconclusive: 39.3 µM

Cc1cccc(C)c1N
AC50 [16]: inconclusive: 25.9 µM | outcome [17]: inactive

CCCCC(CC)COC(=O)c1ccccc1C(=O)OCC(CC)CCCC (stereo not given)
AC50 [18]: inconclusive: 26.2 µM

COS(=O)(=O)OC
AC50 [19]: inconclusive: 25 µM

N#Cc1c[nH]cc1-c1cccc2c1OC(F)(F)O2
outcome [20]: inactive
